Drawing on the supplement of paper PMC10849652, this text covers log2 fold change for 34 targets.

Protein sequences, listed by entry. Tags and fused reporters are not part of them. Lines headed by an entry give the natural chain unless they say otherwise; changes in a name come on top.
UniProt O15371, whole entry, looked up: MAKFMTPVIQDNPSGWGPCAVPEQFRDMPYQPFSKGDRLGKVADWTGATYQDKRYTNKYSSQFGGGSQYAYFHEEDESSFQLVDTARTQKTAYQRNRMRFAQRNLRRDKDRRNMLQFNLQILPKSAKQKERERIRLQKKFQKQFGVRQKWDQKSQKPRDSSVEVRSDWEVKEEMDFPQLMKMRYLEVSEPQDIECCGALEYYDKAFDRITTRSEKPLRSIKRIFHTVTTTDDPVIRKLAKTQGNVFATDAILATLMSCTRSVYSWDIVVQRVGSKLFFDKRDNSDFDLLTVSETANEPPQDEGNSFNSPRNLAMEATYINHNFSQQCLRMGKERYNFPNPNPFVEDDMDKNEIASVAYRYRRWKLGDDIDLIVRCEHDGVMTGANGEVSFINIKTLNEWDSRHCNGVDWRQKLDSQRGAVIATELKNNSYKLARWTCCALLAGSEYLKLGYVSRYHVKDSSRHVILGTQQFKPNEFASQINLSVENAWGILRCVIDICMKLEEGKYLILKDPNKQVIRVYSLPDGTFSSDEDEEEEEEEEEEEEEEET
UniProt Q14249: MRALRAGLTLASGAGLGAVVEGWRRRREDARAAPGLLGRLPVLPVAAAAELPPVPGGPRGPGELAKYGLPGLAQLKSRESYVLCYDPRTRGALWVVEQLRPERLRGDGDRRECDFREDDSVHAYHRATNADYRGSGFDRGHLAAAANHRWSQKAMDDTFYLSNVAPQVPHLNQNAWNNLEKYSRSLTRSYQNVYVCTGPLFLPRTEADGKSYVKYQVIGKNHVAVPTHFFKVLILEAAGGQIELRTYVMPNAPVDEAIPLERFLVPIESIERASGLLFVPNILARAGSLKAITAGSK
UniProt O75821, whole entry, looked up: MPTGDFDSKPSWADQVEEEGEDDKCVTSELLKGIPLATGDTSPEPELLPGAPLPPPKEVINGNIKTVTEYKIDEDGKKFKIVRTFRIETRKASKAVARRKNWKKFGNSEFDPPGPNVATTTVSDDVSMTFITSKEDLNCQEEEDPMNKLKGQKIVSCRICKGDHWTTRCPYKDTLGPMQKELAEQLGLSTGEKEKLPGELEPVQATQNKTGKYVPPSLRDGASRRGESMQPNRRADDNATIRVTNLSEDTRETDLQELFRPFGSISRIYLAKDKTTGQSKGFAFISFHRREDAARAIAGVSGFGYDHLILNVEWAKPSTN
UniProt P60228, whole entry, looked up: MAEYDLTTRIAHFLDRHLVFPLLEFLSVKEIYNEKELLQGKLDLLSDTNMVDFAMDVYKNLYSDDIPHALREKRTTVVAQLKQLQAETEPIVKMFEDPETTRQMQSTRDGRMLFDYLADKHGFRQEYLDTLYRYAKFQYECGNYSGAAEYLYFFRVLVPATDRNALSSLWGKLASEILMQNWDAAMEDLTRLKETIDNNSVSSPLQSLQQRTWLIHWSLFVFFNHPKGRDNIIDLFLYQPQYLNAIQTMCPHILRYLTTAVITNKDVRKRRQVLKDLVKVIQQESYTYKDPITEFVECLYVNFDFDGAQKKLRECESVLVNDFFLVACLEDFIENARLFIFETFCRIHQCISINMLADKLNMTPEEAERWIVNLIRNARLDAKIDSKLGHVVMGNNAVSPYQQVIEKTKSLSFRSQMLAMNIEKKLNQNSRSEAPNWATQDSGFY
UniProt P98172: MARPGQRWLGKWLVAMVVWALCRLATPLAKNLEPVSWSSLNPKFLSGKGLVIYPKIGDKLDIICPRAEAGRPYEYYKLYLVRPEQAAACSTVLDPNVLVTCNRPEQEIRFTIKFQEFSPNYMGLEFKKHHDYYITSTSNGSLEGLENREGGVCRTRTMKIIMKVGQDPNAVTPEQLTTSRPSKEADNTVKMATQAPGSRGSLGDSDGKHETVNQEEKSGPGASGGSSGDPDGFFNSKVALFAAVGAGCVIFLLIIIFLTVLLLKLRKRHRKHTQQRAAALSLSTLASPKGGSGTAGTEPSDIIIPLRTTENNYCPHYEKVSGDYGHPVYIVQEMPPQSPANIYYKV
UniProt Q9NPA0: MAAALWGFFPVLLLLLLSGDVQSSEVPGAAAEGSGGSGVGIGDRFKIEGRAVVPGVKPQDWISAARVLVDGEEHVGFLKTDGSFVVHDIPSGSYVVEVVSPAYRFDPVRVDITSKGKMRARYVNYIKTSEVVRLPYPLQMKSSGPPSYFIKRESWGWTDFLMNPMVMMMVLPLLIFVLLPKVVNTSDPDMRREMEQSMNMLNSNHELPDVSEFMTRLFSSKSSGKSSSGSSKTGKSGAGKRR
UniProt P05198, whole entry, looked up: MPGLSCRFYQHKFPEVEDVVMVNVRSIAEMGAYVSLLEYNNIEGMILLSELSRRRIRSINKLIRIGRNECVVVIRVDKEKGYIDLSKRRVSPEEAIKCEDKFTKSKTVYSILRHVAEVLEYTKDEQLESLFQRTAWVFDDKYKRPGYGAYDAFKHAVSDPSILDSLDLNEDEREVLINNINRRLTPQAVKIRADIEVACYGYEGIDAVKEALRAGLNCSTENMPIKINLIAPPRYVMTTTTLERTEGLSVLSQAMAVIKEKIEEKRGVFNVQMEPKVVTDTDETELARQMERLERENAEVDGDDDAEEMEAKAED
UniProt Q14152, whole entry, looked up: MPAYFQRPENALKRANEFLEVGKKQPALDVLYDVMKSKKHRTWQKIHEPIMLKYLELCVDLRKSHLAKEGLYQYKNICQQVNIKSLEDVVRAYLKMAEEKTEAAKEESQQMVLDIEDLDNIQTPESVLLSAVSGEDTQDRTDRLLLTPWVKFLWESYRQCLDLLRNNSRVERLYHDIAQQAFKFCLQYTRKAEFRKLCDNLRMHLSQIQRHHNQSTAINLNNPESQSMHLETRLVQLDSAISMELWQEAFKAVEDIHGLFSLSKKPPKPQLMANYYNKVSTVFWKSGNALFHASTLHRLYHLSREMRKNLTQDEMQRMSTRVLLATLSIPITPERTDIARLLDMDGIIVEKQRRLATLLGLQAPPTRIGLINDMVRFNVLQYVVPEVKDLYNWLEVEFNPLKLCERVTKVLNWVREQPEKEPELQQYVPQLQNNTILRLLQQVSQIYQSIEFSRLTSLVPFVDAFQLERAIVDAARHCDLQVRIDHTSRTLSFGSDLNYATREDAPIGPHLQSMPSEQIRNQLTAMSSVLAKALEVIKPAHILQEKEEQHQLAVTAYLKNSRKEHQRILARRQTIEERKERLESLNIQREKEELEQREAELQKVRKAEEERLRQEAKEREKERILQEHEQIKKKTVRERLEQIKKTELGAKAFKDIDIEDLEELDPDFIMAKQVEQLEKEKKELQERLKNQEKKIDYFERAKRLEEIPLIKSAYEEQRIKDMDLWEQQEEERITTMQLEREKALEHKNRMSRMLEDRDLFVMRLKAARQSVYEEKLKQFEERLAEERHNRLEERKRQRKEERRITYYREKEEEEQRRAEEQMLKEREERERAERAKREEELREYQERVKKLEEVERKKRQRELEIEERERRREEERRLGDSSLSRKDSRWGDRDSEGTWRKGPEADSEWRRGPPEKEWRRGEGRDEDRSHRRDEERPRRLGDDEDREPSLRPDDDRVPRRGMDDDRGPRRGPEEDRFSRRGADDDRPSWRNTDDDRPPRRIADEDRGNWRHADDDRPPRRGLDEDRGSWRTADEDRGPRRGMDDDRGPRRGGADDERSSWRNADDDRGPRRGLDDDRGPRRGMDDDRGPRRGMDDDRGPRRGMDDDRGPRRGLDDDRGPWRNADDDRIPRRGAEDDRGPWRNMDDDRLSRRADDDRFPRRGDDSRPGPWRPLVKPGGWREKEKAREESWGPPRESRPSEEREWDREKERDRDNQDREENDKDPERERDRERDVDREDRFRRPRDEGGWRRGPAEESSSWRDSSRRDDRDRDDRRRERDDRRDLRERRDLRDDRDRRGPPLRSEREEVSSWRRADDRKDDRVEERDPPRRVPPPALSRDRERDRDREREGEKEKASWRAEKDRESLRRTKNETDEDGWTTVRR
UniProt P13929, whole entry, looked up: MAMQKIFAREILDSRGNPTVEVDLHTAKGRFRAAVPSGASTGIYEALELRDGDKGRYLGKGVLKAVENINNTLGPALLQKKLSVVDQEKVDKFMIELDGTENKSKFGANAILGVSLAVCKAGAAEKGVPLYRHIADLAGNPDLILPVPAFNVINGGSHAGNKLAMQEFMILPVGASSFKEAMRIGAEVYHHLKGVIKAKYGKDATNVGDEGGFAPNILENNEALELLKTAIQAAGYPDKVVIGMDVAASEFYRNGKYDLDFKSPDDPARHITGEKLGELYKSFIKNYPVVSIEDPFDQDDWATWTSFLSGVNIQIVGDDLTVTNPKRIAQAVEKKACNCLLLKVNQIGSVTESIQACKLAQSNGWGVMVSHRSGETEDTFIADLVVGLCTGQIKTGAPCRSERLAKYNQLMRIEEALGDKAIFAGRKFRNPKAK
UniProt Q9BV81: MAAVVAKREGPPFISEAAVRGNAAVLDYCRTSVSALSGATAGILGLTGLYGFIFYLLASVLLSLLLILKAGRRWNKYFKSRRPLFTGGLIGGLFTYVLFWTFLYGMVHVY
UniProt O15372, whole entry, looked up: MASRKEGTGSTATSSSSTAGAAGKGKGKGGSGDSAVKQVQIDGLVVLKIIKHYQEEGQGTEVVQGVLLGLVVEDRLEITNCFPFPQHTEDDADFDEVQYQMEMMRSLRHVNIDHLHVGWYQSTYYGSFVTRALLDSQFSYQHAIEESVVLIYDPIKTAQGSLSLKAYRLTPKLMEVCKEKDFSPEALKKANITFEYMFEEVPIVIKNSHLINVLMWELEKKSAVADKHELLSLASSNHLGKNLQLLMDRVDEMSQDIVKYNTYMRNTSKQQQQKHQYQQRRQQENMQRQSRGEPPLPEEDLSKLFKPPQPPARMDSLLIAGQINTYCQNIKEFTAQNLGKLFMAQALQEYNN
UniProt P57772: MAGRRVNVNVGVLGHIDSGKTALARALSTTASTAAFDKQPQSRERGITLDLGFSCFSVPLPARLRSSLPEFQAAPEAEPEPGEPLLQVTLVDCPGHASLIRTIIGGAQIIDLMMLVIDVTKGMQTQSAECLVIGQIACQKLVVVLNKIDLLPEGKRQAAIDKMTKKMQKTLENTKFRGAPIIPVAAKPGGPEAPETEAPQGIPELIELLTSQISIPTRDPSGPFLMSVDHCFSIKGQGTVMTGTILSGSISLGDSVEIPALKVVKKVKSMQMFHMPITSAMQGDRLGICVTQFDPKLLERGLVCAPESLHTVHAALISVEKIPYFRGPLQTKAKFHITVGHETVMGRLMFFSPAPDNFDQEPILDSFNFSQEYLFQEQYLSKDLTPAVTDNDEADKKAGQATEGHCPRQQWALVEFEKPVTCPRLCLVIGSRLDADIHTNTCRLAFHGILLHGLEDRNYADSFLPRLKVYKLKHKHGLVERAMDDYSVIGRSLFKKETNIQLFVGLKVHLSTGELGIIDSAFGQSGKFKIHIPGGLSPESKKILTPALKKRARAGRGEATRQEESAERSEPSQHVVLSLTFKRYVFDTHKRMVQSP
UniProt Q8IZ81: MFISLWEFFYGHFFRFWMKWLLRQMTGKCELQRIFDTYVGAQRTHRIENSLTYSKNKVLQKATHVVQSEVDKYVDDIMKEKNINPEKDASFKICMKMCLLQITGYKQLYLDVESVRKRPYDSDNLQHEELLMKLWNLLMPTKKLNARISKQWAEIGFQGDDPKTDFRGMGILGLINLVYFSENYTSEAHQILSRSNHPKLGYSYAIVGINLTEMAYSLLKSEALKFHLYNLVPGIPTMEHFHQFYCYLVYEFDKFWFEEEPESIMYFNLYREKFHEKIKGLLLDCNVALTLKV
UniProt Q32P44: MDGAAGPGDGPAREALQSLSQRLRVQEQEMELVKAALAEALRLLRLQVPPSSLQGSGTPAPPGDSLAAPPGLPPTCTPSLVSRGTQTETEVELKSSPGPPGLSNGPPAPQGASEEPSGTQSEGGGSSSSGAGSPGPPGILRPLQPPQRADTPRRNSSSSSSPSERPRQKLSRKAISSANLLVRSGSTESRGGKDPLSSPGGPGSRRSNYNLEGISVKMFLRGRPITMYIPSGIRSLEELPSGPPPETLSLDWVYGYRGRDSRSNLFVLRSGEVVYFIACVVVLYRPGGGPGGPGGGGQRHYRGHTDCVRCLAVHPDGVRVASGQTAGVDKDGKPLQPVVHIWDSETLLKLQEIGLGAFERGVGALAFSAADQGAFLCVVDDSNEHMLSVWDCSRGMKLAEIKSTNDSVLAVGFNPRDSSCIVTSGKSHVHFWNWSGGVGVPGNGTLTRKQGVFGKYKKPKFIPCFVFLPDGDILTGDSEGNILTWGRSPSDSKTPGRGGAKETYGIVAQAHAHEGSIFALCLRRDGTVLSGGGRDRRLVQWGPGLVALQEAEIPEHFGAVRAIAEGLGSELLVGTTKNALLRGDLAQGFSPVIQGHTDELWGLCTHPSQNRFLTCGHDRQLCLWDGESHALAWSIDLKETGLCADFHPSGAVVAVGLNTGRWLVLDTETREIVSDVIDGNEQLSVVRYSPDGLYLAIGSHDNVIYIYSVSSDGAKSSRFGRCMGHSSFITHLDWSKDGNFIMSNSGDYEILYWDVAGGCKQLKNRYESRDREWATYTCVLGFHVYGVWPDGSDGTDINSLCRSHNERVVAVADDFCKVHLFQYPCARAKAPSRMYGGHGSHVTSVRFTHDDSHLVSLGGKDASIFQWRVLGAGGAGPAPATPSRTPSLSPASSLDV

The list shows a part of the results.

Compound in the first assay: CC1=C(C(CC(=O)N1)C2=CC=C(C=C2)C(F)(F)F)C(=O)NC3=C(C=C4C(=C3)C=NN4)F
Kind of assay: log2 fold change, soluble protein after heating vs DMSO (PISA); higher = thermal stabilisation; K562 cells, 10 uM, 30 min; active = over 0.2 and 3.5 SD of the protein, either way, in both replicates (recomputed). The method, boiled down: (§1)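 For each measurement, 10 μM compound was applied for 30 min to K562 cells at 2×10^6 cells/mL. Aliquots were heated for 3 min across 48°C-58°C, pooled, and extracted in PBS with 0.5% NP-40 at 4°C; the supernatant after 21,000xg for 90 min was soluble protein. This was quantified by TMTpro 16plex LC-MS/MS with channel sums equalised, and thermal stability was reported relative to control samples from duplicates, on a log2 fold-change scale.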
EIF3D (UniProt O15371): the log2 fold change is inactive: 0.048.

Regarding ENDOG (UniProt Q14249), the log2 fold change is inactive: -0.037.

Regarding EIF3G (UniProt O75821), the log2 fold change is inactive: 0.062.

Turning to ELP6 (UniProt Q0PNE2), the log2 fold change was inactive: -0.005.

Regarding ENO2 (UniProt P09104), the log2 fold change was inactive: 0.041.

On to EIF3E (UniProt P60228), for which the log2 fold change is inactive: 0.006.

Regarding EHHADH (UniProt Q08426), the log2 fold change is inactive: -0.001.

On to EP300 (UniProt Q09472), for which the log2 fold change was inactive: 0.005.

Turning to EIF2D (UniProt P41214), the log2 fold change is inactive: 0.04.

In the case of EMP3 (UniProt P54852), the log2 fold change was inactive: -0.091.

Take EFNB1 (UniProt P98172): the log2 fold change was inactive: 0.062.

Compound in the next assay: CC1=C(C2=C(C=C1)C(=O)C3=CC=CC=C3N2CCCN)C
The assay is described as above. The essentials: as §1
For EMC7 (UniProt Q9NPA0), the log2 fold change is inactive: 0.058.

Turning to EIF2S1 (UniProt P05198), the log2 fold change is inactive: 0.172.

Consider EIF3A (UniProt Q14152), for which the log2 fold change was inactive: -0.058.

For the target EIF2B3 (UniProt Q9NR50), the log2 fold change is inactive: 0.

For the target ENO3 (UniProt P13929), the log2 fold change was inactive: -0.041.

With EIF3L (UniProt Q9Y262), the log2 fold change was inactive: -0.01.

In the case of EPB41 (UniProt P11171), the log2 fold change was inactive: 0.025.

For EIF2B2 (UniProt P49770), the log2 fold change was inactive: 0.011.

ENSA isoform 3 (UniProt O43768): the log2 fold change is inactive: -0.034.

On to ELP2 isoform 6 (UniProt Q6IA86), for which the log2 fold change is inactive: 0.015.

For the target EIF1AX (UniProt P47813), the log2 fold change was inactive: -0.057.

On to EMC6 (UniProt Q9BV81), for which the log2 fold change was inactive: 0.057.

Consider EIF4B (UniProt P23588), for which the log2 fold change is inactive: 0.006.

Regarding EIF3H (UniProt O15372), the log2 fold change is inactive: -0.06.

Consider EEFSEC (UniProt P57772), for which the log2 fold change was inactive: 0.169.

Consider ELP4 (UniProt Q96EB1), for which the log2 fold change was inactive: 0.104.

In the case of ELMOD2 (UniProt Q8IZ81), the log2 fold change was inactive: 0.007.

As to EML3 isoform 2 (UniProt Q32P44), the log2 fold change was inactive: 0.055.

For ELOB (UniProt Q15370), the log2 fold change was inactive: 0.093.

On to EEF2 (UniProt P13639), for which the log2 fold change was inactive: 0.001.

In the case of EI24 (UniProt O14681), the log2 fold change is inactive: 0.008.

Turning to EHMT2 (UniProt Q96KQ7), the log2 fold change was inactive: 0.026.

For EIF1 (UniProt P41567), the log2 fold change is inactive: -0.089.

As for EIF3D (UniProt O15371), the log2 fold change was inactive: -0.109.

For the target ENDOG (UniProt Q14249), the log2 fold change is inactive: 0.187.

On to EIF3G (UniProt O75821), for which the log2 fold change was inactive: 0.

ELP6 (UniProt Q0PNE2): the log2 fold change was inactive: 0.015.

In the case of ENO2 (UniProt P09104), the log2 fold change is inactive: -0.012.

For EIF3E (UniProt P60228), the log2 fold change is inactive: -0.063.

In the case of EHHADH (UniProt Q08426), the log2 fold change is inactive: 0.156.

Turning to EP300 (UniProt Q09472), the log2 fold change was inactive: 0.088.

Turning to EIF2D (UniProt P41214), the log2 fold change is inactive: -0.032.

EMP3 (UniProt P54852): the log2 fold change is inactive: 0.002.

Take EFNB1 (UniProt P98172): the log2 fold change is inactive: 0.055.
